These are yes or no findings as the source states them, for the method shown. In cells and extracts the contact can be indirect. Binding can be weak; no strength is given.
Molecular target: StrepII-FLAG-tagged FBXO38 lacking the F-box motif (FBXO38^ΔFBOX) (human) (UniProt Q6PIJ6)
Test: co-IP; SF-tagged bait affinity-purified on Strep-Tactin Sepharose from whole-cell lysates of transfected HEK293T cells (150 mM NaCl, 50 mM Tris pH 7.5, 0.4% Triton X-100, Benzonase), desthiobiotin elution, immunoblot; MLN4924 before collecting where indicated

The chains behind the UniProt entries cited, without tags or fusion partners. Where a name states a change or a piece, a line headed by the entry shows the natural chain unless it says otherwise.
UniProt Q6PIJ6: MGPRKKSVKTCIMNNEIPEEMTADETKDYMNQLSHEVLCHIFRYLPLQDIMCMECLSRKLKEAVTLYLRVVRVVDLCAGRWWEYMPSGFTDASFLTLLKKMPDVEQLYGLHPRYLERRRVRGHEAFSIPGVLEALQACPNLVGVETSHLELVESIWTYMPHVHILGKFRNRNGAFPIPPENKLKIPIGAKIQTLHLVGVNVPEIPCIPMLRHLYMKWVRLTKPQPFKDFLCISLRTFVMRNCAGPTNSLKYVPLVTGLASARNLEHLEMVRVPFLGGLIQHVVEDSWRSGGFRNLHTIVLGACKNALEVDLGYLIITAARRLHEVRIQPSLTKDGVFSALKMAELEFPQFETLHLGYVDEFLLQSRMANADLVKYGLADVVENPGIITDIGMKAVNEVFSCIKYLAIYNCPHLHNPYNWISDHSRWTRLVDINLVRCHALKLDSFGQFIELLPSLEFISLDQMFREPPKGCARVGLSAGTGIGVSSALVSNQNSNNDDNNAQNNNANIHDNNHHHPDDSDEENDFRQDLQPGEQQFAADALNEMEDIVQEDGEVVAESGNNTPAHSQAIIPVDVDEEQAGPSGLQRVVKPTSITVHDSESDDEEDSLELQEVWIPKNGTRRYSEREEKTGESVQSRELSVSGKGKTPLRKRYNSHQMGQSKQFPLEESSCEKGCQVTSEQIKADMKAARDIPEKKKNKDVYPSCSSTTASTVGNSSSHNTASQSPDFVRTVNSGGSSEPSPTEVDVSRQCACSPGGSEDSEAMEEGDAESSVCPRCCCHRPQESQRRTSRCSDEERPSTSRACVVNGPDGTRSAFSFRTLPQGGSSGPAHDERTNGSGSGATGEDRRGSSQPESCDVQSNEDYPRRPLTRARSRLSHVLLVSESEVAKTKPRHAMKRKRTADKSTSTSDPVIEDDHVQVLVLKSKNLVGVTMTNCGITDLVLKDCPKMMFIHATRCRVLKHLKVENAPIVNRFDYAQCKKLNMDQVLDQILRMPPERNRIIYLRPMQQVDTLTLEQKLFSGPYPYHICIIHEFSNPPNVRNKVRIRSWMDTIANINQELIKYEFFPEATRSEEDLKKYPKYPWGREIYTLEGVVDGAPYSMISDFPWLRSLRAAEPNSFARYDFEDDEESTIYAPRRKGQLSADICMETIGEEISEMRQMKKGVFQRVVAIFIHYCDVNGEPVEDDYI
UniProt Q93009: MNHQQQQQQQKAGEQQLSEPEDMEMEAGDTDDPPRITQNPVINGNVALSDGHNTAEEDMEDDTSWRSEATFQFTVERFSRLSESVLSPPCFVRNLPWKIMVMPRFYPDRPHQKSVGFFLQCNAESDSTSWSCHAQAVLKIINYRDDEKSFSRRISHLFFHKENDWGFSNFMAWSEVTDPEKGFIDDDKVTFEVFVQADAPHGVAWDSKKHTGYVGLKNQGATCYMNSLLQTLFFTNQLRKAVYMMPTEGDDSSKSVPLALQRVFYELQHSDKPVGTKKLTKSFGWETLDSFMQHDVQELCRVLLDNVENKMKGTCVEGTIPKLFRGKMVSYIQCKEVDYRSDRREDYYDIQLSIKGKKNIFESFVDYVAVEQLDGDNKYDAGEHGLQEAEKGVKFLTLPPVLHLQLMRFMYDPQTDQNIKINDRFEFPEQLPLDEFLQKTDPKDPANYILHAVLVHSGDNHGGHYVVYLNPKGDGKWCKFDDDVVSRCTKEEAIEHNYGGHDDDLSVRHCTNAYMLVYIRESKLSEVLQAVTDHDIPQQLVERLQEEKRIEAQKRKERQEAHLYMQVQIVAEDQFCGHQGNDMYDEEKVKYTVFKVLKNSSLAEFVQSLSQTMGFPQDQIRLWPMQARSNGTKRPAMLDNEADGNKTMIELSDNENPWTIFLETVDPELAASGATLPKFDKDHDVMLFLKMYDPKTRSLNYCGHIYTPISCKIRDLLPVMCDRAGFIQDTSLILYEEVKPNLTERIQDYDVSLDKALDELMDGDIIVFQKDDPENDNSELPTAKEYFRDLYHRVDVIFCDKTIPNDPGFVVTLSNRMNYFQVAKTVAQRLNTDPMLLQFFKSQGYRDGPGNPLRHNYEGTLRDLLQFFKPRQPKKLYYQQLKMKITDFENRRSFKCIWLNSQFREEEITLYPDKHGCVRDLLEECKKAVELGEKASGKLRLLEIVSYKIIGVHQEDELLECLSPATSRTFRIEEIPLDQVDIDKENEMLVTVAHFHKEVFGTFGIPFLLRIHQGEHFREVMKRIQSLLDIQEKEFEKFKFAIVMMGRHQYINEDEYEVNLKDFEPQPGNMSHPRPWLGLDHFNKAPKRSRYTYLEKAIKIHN

binding: binds
Substance: USP7 deubiquitinase, endogenous in HEK293T cells (from UniProt Q93009 1-1102) (enzyme)
